# Out of some 390,000 compounds screened, about 610 (0.16%) were called active. The inconclusive results got no clear call from the source; some entries with a clear call stand among them for comparison. Calls follow the shape of the dose curve; as a rule, active = well fitted inhibition curve with a large enough effect; inconclusive = small, poorly fitted or top-dose-only effect, or effect the other way, or another doubt; inactive = no such curve, though single readings can be large or run the other way. A potency beside an inconclusive call is a rough fit, not a confirmed value.
# Assay: Nrf2 qHTS screen for inhibitors: counterscreen for cytotoxicity
# Settings: A549 ARE-Fluc cells, CellTiter-Fluor viability, 18-24 h; series mostly up to 46 µM
# Outline: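 Cytotoxicity counterscreen: CellTiter-Fluor fluorescence was measured in A549 ARE_Fluc cells after 18-24 h of compound exposure in a concentration series. The subsequent BugLite luminescent read reports ARE-luciferase activity.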
# Potency is read from the fitted curve at half-maximal effect.
row,SMILES,Potency
1,COc1cccc(-c2c(C#N)c(N)nc3c2c(C)nn3-c2ccccc2)c1O,"inconclusive: 29.1 µM [falling, single point]"
2,O=C1c2ccccc2C(=O)N1CCCCc1cn(C[C@H]2CC[C@H](Cn3cc(CCCCN4C(=O)c5ccccc5C4=O)nn3)O2)nn1,inactive
3,Cc1c(C)c([N+](=O)[O-])c(C)c(C)c1N,"inconclusive: 1.03 µM [activator, full curve, poor fit]"
4,CCCCN(CC)C(=O)c1cccc(Cl)c1,"inconclusive: 6.51 µM [activator, partial curve, poor fit]"
5,Cc1ccnc(NC(=O)c2ccccc2NC(=O)C(C)(C)C)c1,"inconclusive: 23.1 µM [falling, partial curve, poor fit]"
6,Cc1nc2nc(NC(=O)c3ccc(C(C)(C)C)cc3)[nH]n2c(=O)c1C,inactive
7,O=C(CSc1ncc(-c2ccccc2)[nH]1)Nc1ccccc1,inactive
8,COc1ccc(S(=O)(=O)Nc2cc3[nH]c(=O)oc3cc2C)cc1,"inconclusive: 20.6 µM [falling, partial curve]"
9,CC(C)(C)c1ccc(C(=O)CCCSC2=C(C#N)C(c3ccco3)C3=C(CCCC3=O)N2)cc1 (stereo unspecified),active: 20.6 µM
10,COc1ccc(OCCC(=O)N2CCN(C)CC2)cc1,inactive
11,C/C(=N\NC(N)=S)C12CC3CC(CC(C3)C1)C2,"inconclusive: 29.1 µM [activator, single point]"
12,COc1ccc(CCNc2c([N+](=O)[O-])ncn2C)cc1OC,"inconclusive: 4.61 µM [falling, partial curve, poor fit]"
13,CN(C)CC(CCC(CN(C)C)C(=O)c1ccccc1)C(=O)c1ccccc1 (stereo unspecified),"inconclusive: 23.1 µM [falling, single point]"
14,O=[N+]([O-])c1nn(-c2ccccc2)n(O)c1=NC1CCN(Cc2ccccc2)CC1,active: 18.4 µM
15,S=C(Nc1nc2c(s1)CCCC2)NC1CC1,inactive
16,Cc1ccc(C2C3=C(CC(C)(C)CC3=O)N=C3c4ccccc4C(=O)C32)cc1 (stereo unspecified),"inconclusive: 23.1 µM [falling, partial curve, poor fit]"
17,Cc1ccc2c(c1)c1nc3ccccc3nc1n2CCN1CCOCC1,"inconclusive: 20.6 µM [falling, partial curve, poor fit]"
18,NC(=O)c1ccc(NC(=O)C2CCCO2)cc1 (stereo unspecified),inactive
19,Cc1cc(NC(=O)c2ocnc2C)no1,inactive
20,Cc1nc(NCc2ccco2)c2c3c(sc2n1)CCC3,inactive
21,O=C(/C(=C\c1ccccc1)c1nc2ccccc2[nH]1)c1ccc(Cl)cc1,"inconclusive: 32.6 µM [falling, single point]"
22,CN1CCN(C2CC(=O)N(CCc3ccccc3)C2=O)CC1 (stereo unspecified),"inconclusive: 2.31 µM [activator, full curve, poor fit]"

row,SMILES,Potency
1,CN(C)CC(C)(C)CNC(=O)C1CCN(Cc2ccccc2O)CC1,"inconclusive: 29.1 µM [falling, single point]"
2,Cc1cc(OCCN2CCC(Cc3ccccc3)CC2)ccc1[N+](=O)[O-],inactive
3,CCOc1ccccc1CNC(=O)c1cnc2sc(N(CC)CC)nn2c1=O,inactive
4,CCN(CC)CCOC(=O)c1ccc(Nc2c3c(nc4ccccc24)CCC3)cc1,"inconclusive: 29.1 µM [falling, single point]"
5,Cc1ccc(NC(=O)c2cccc(S(=O)(=O)N3CCN(c4ccccc4)CC3)c2)nc1,inactive
6,CCN(CC)CCOC(=O)c1ccc(NC(=O)c2cc3c(s2)-c2ccccc2OC3)cc1,"inconclusive: 29.1 µM [falling, single point]"
7,COc1ccc(NC(=O)CSc2nnc(-c3ccco3)c(-c3ccco3)n2)cc1OC,inactive
8,COc1ccc(/C=C/C(=O)NC(=S)NNC(=O)Cc2cccs2)cc1,"inconclusive: 29.1 µM [falling, single point]"
9,Cc1cc(NC(=O)CCCS(=O)(=O)c2nc(-c3cccs3)cc(C(F)(F)F)n2)no1,inactive
10,Nc1ccccc1N=Cc1ccc(-c2cccc(Cl)c2)o1,"inconclusive: 16.4 µM [falling, single point]"
11,COc1ccc(S(=O)(=O)N2CCOCC2)cc1NC(=O)CN1CCC(Cc2ccccc2)CC1,"inconclusive: 16.4 µM [falling, partial curve, poor fit]"
12,CC(=O)Nc1ccc(NC(=O)CSc2nccn2Cc2ccccc2)cc1,inactive
13,CCOc1ccc(C(=O)/C=C/c2cn(CC(O)CN3CCc4ccccc43)c3ccccc23)cc1 (stereo unspecified),"inconclusive: 29.1 µM [falling, single point]"
14,Cc1cc(C)cc(N2C(=O)N(Cc3cc(=O)n4ccccc4n3)c3ccccc3S2(=O)=O)c1,"inconclusive: 23.1 µM [falling, partial curve, poor fit]"
15,COc1ccc(Oc2cc(NN3CCCCC3)c([N+](=O)[O-])cc2[N+](=O)[O-])cc1OC,"inconclusive: 32.6 µM [falling, partial curve, poor fit]"
16,COc1ccc(Cl)cc1C(=O)Nc1ccccc1N1CCCCC1,"inconclusive: 8.2 µM [activator, partial curve, poor fit]"
17,Cc1ccc(NS(=O)(=O)c2ccc(C(C)C)cc2)cc1S(=O)(=O)N1CCOCC1,"inconclusive: 29.1 µM [falling, partial curve, poor fit]"
18,COc1ccc(C(=O)Nc2ccc3nc4c(c(Nc5ccccc5OC)c3c2)CCCC4)c(OC)c1,"inconclusive: 16.4 µM [falling, partial curve, poor fit]"
19,CCN1/C(=C/C(=S)Nc2ccccc2)Sc2ccccc21,active: 16.4 µM
20,O=C(Nc1cccnc1)c1ccc(Cl)c(S(=O)(=O)N2CCc3ccccc32)c1,inactive
21,O=C(Nc1ccc(Oc2cccnc2)cc1)C1CCN(Cc2ccc(F)cc2)CC1,"inconclusive: 29.1 µM [falling, single point]"
22,O=C(NC1CCCCC1)N1CCN(c2ccc([N+](=O)[O-])cc2)CC1,inactive

row,SMILES,Potency
1,O=c1[nH]cnc2scc(-c3ccccc3)c12,"inconclusive: 18.4 µM [activator, partial curve, poor fit]"
2,COc1ccc(-c2cc3nc(C)c(CCC(=O)NCCc4ccc(Cl)cc4)c(C)n3n2)c(OC)c1,"inconclusive: 29.1 µM [falling, single point]"
3,O=C(Nc1cccc([N+](=O)[O-])c1)c1cc2ccccc2cc1O,"inconclusive: 23.1 µM [falling, single point]"
4,Cc1cccc(OCCNC(=O)c2ccc(Cl)c(S(=O)(=O)NCc3cccnc3)c2)c1,"inconclusive: 8.2 µM [falling, partial curve, poor fit]"
5,O=C(Nc1nc2c(F)cccc2s1)c1ccc([N+](=O)[O-])o1,inactive
6,C#CCOCCOCCOCCNc1nc(N2CCN(C(=O)CCCCCCCCCCNC(=O)[C@H]([C@@H](C)CC)n3cc(CCCCCN)nn3)CC2)nc(N2CCN(C(=O)CCCCCCCCCCNC(=O)[C@@H]([C@H](C)O)n3cc(C)nn3)CC2)n1,"inconclusive: 29.1 µM [falling, single point]"
7,NNC(=O)c1oc2ccccc2c1-n1cccc1,"inconclusive: 18.4 µM [falling, partial curve]"
8,O=C1C=C(Nc2ccc(F)cc2)c2ccccc2C1=O,"inconclusive: 29.1 µM [falling, single point]"
9,COc1cc(NC(=S)N2CCN(C(c3ccccc3)c3ccccc3)CC2)cc(OC)c1,"inconclusive: 3.26 µM [activator, partial curve, poor fit]"
10,CC(=O)c1ccc(NC(=O)c2sc(-n3nc(C)c(Cc4ccccc4)c3C)nc2C)cc1,"inconclusive: 1.03 µM [falling, partial curve, poor fit]"
11,O=S(=O)(/C=C/C=C/S(=O)(=O)c1ccccc1)c1ccccc1,"inconclusive: 18.4 µM [falling, single point]"
12,Cc1ccc(/C=N/Nc2ncc(Cl)cc2Cl)s1,active: 5.8 µM
13,O=C(Cc1c(F)cccc1Cl)Nc1ncc([N+](=O)[O-])s1,"inconclusive: 11.6 µM [falling, partial curve, poor fit]"
14,CNC(=O)/C(C#N)=C/c1c(N(Cc2ccccc2)Cc2ccccc2)nc2c(C)cccn2c1=O,"inconclusive: 29.1 µM [falling, partial curve, poor fit]"
15,COc1ccc(C)cc1N(C(=O)c1snc(C(N)=O)c1N)C(C(=O)NC1CCCC1)c1ccc(F)cc1 (stereo unspecified),"inconclusive: 13 µM [falling, partial curve, poor fit]"
16,Cc1ccc(C(C(=O)Nc2ccc(C(C)C)cc2)N(C)C(=O)c2ccc(=O)[nH]c2)cc1 (stereo unspecified),"inconclusive: 18.4 µM [falling, single point]"
17,COc1ccccc1-n1cnc2cc(NCc3cccs3)ccc21,"inconclusive: 9.2 µM [falling, partial curve, poor fit]"
18,CCc1ccc(C(=O)NN(C(=O)c2ccc(CC)cc2)C(C)(C)C)cc1,"inconclusive: 23.1 µM [falling, partial curve, poor fit]"
19,O=C(CCCn1nnnc1CN1CCOCC1)N1CCC(c2ccc(F)cc2)C1 (stereo unspecified),"inconclusive: 0.0052 µM [activator, full curve, poor fit]"
20,O=C(CN(c1cccc([N+](=O)[O-])c1)S(=O)(=O)c1ccccc1)NCc1cccnc1,inactive
21,CCOC(=O)c1sc(NC(=O)c2ccncc2)c(C#N)c1C,"inconclusive: 23.1 µM [falling, single point]"
22,CC[C@]12c3[nH]c4cc(CCC(=O)N(C)C)ccc4c3CCN1C(=O)[C@@H](CC(=O)NC/C=C(\C)CCC=C(C)C)C[C@@H]2C(=O)N1CCN(C(=O)c2ccco2)CC1,"inconclusive: 20.6 µM [falling, single point]"

# — PubChem BioAssay AID504648 (National Center for Advancing Translational Sciences (NCATS), 2011)
